From US20080139664A1, “ANTI-GLYCATION AGENTS FOR PREVENTING AGE-, DIABETES-, AND SMOKING-RELATED COMPLICATIONS” (NATIONAL RESEARCH COUNCIL OF CANADA, priority 2001, published 2008)

Columns and labels:
lysozyme = assay: ESI-MS of lysozyme glycoforms after incubation with D-ribose; details: 37° C., 5 days;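 also: lysozyme incubated with D-ribose, with or without anti-glycation agents, then separated by reversed-phase HPLC and analysed by electrospray mass spectrometry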
[1] = test system: bovine serum albumin (BSA)

O=C1OCCN1/N=C/c1ccc([N+](=O)[O-])o1 [Furazolidone]
Peak area as % of total area of all glycoforms, 14,569 (lysozyme; lysozyme + 2D-ribose − 2H2O (14,569 Da)): 4.6%
Peak area as % of total area of all glycoforms, 14,551 (lysozyme; lysozyme + 2D-ribose − 3H2O (14,551 Da)): 3.1%
Peak area as % of total area of all glycoforms, 14,533 (lysozyme; lysozyme + 2D-ribose − 5H2O (14,533 Da)): 1.7%
Peak area as % of total area of all glycoforms, 14,515 (lysozyme; lysozyme + 2D-ribose − 6H2O (14,515 Da)): 0.9%
Peak area as % of total area of all glycoforms, 14,419 (lysozyme; lysozyme + D-ribose − 2H2O (14,419 Da)): 6.6%
Peak area as % of total area of all glycoforms, 14,401 (lysozyme; lysozyme + D-ribose − 3H2O (14,401 Da)): 0.0%
Peak area as % of total area of all glycoforms, 14,437 (lysozyme; lysozyme + D-ribose − H2O (14,437 Da)): 22.7%
Peak area as % of total area of all glycoforms, 14,496 (lysozyme; lysozyme + D-ribose − H2O with one carboxymethylated Lys residue (14,496 Da)): 0.0%
Peak area as % of total area of all glycoforms, 14,364 (lysozyme; lysozyme with one carboxymethylated Lys residue (14,364 Da)): 2.2%
Peak area as % of total area of all glycoforms, 14,305 (lysozyme; unmodified lysozyme (14,305 Da)): 56.8%
IC50 [1]: 33 µM
maximum percentage of the inhibition [1]: 38%)
